{"source": "ChEMBL document CHEMBL5500364", "about": "“Design, synthesis, and biological evaluation of some 2-(3-oxo-5,6-diphenyl-1,2,4-triazin-2(3H)-yl)-N-phenylacetamide hybrids as MTDLs for Alzheimer's disease therapy” (Eur J Med Chem, 2024)", "test": "Permeability of compound in PBS at pH 7.4 incubated for 18 hrs by PAMPA-BBB assay"}
{"smiles": "COc1cc2c(cc1OC)C(=O)C(CC1CCN(Cc3ccccc3)CC1)C2", "note": "(stereo unspecified) [DONEPEZIL]", "values": [{"measurement": "Papp at 18 h", "result": 6.14, "unit": "×10⁻⁶ cm/s"}]}
